Results are given in words; binding and its absence hold for the method and conditions named. Binding seen in cells or lysates may run through a third protein. Some entries that bind do so weakly or less than the wild type.

In test [1] the target is T1, TRAF6 (tumor necrosis factor receptor-associated factor 6), endogenous in adipocytes (mouse (endogenous in adipocytes)) (UniProt P70196).
T1 sequence: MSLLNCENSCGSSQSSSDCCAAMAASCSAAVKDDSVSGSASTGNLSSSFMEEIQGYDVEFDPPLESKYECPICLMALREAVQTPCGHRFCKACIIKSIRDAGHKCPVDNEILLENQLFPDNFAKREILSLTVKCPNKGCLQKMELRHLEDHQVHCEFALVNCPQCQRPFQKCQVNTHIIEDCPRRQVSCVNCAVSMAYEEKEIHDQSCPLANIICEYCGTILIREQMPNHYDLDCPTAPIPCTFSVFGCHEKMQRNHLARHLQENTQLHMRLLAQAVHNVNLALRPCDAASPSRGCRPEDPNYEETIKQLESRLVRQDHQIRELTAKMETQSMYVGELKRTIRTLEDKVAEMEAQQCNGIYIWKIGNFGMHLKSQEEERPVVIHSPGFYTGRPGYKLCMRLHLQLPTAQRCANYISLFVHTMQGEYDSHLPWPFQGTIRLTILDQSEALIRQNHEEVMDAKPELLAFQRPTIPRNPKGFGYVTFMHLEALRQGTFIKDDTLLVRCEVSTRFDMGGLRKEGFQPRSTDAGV
Kind of test: co-IP; endogenous proteins in TNF-α (60 ng/ml; 30 min)-treated adipocytes, Flox or TRPM7 knockout/knockdown, with or without clamping of intracellular Ca2+; 1 mg lysate protein immunoprecipitated with the indicated antibodies at 4 °C overnight, Protein A/G Agarose, western blot. On the technique in general: In western blotting, separated proteins are transferred to a membrane and probed.

Test [2] deals with T2, transforming growth factor-β activated kinase 1 (TAK1), endogenous in adipocytes (mouse (endogenous in adipocytes)) (UniProt Q62073).
T2 sequence: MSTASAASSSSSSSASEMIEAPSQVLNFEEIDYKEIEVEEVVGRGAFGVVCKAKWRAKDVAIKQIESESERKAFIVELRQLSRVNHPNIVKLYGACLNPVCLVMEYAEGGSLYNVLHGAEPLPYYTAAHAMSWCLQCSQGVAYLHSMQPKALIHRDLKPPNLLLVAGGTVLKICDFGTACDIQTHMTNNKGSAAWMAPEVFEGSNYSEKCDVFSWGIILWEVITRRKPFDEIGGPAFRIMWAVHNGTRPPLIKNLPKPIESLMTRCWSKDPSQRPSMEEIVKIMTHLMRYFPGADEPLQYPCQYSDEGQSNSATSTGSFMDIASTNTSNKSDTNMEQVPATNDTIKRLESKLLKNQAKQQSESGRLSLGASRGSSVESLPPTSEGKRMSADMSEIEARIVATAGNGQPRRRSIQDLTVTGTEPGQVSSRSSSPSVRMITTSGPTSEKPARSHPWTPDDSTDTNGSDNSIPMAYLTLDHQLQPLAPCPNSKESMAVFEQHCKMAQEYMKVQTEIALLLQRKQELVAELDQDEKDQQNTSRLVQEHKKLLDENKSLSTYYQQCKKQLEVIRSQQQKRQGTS
The description is as above.

With “c-Cbl, endogenous in adipocytes (from UniProt P22682 1-913)”, the binding result in test [1] is on record as “binds”.

B1: TRAF6 (tumor necrosis factor receptor-associated factor 6), endogenous in adipocytes (protein, UniProt P70196 1-530)
chain: T1 sequence
Regarding B1, in test [2], the binding result was “binds”.

The record behind these values is PMC9887063.
